From PMC12431657, “Discovery and mechanistic insights of dibenzoylmethane as a broad spectrum inhibitor of coronavirus” (PLOS Pathogens, 2025)
Where a name gives a salt, the structure may show the parent alone. Read-outs that look alike come from different tables or passages of the source. Screen size: about 3,300 compounds; about 60 (2%) showed an effect of 50% or more. Some of the results follow.

System: HCoV-OC43
Set-up: species or system RD; HTS, protection from HCoV-OC43 induced cell death, luminescent cell viability (CellCounting-Lite 2.0), inhibition rate
Conditions: 24 h post infection, 1 h compound pre-incubation, 10 µM, inhibitor

SMILES | OC43 Inhibition rate [%] | OC43 Inhibition rate (OC43 Inhibition rate, 24 h) [%]
CC1=C[C@]2(O)O[C@@]3(CC2=C(C)C)[C@@H](C)CC[C@@H]13 [Curcumenol] | 0.1 | –
COc1cc2c(cc1O)-c1cc3ccc(OC)c(OC)c3c[n+]1CC2 [Columbamine] | -2.9 | –
COc1ccc(-c2oc3c(CC=C(C)C)c(O)cc(O)c3c(=O)c2O[C@@H]2O[C@@H](C)[C@H](O)[C@@H](O)[C@H]2O[C@@H]2O[C@H](CO)[C@@H](O)[C@H](O)[C@H]2O)cc1 [Sagittatoside A] | 1 | –
COc1cc(O)cc(/C=C/c2ccccc2)c1 [Pinosylvin monomethyl ether] | -0.2 | –
CC(C)CCCC(C)CCCC(C)CCCCC(C)CCCC(C)CCCC(C)C (stereo not shown) [Squalane] | -0.3 | –
OC[C@H]1O[C@@H](O[C@H]2[C@H](O)[C@@H](O)[C@@H](O)O[C@@H]2CO)[C@H](O)[C@@H](O)[C@H]1O [α-Lactose] | -4.2 | –
COc1ccc(-c2cc(=O)c3c(O)cc(O[C@@H]4O[C@H](CO[C@@H]5O[C@@H](C)[C@H](O)[C@@H](O)[C@H]5O)[C@@H](O)[C@H](O)[C@H]4O)cc3o2)cc1O [Diosmin] | 1.4 | –
O=C(O)c1ccc2ccccc2n1 [Quinoline-2-carboxylic acid] | 0.7 | –
CC1(C)CC[C@]2(C(=O)O)CC[C@]3(C)C(=CC[C@@H]4[C@@]5(C)C[C@H](O)[C@H](O)[C@@](C)(CO)[C@@H]5CC[C@]43C)[C@@H]2C1 [Bayogenin] | -2.5 | –
O=C(O)C1CSSC1 [Asparagusic acid] | 0.3 | –
Cn1c(=O)ccn([C@@H]2O[C@H](CO)[C@@H](O)[C@H]2O)c1=O [3-Methyluridine] | 0.3 | –
O=C(O)[C@@H]1CCCN1 [L-Proline] | 6.9 | –
CCOC(=O)C1=C[C@]2(CC)CCCN3CCc4c(n1c1ccccc41)[C@@H]32 [Vinpocetine] | 0.9 | –
O=C(/C=C/c1ccc(O[C@@H]2O[C@H](CO)[C@@H](O)[C@H](O)[C@H]2O)cc1)c1ccc(O)cc1O [Isoliquiritin] | 0.3 | –
O=C(O)CCCC(O)C(=O)O (stereo not shown) [2-Hydroxyadipic acid] | -1.2 | –
COc1ccccc1O [Guaiacol] | 2.4 | –
CCCC[C@@H]1OC(=O)C2=C1CCC=C2 [Senkyunolide A] | 0 | –
COc1cc(CCC(C)=O)ccc1O [Zingerone] | 0.6 | –
CC(C)=CCC/C(C)=C/COc1c2occc2cc2ccc(=O)oc12 [8-Geranyloxypsoralen] | 40.2 | –
COc1cc(O)cc(O)c1C(=O)/C=C/c1ccc(O)cc1 [Helichrysetin] | 0.8 | –
N[C@@H](CCC(=O)O)C(=O)O [L-Glutamic acid (monosodium salt)] | – | -1.4
COC(=O)Cc1ccc(C(C)(C)C)cc1 [Methyl p-tert-butylphenylacetate] | -0.2 | –
CN(C)[C@@H]1C(O)=C(C(N)=O)C(=O)[C@@]2(O)C(O)=C3C(=O)c4c(O)ccc(Cl)c4[C@@](C)(O)[C@H]3C[C@@H]12 [Chlortetracycline (hydrochloride)] | 1.3 | –

SMILES | OC43 Inhibition rate [%] | OC43 Inhibition rate (OC43 Inhibition rate, 24 h) [%]
O=C1c2ccccc2C(=O)c2c(O)cccc21 [1-Hydroxyanthraquinone] | -2.2 | –
COC(=O)C1CCCCC1 [Methyl cyclohexanecarboxylate] | -0.8 | –
OC1CCN2Cc3ccccc3N=C12 (racemic) [(±)-Vasicine] | -0.5 | –
O=C1C=CCO1 [2(5H)-Furanone] | 4.6 | –
C[C@]12CC[C@@H]3c4ccc(O)cc4CC[C@H]3[C@@H]1CCC2=O [Estrone] | -1.1 | –
Nc1nc(N)c(O[C@@H]2O[C@H](CO)[C@@H](O)[C@H](O)[C@H]2O)c(=O)[nH]1 [Vicine] | -0.8 | –
C[C@H]1CC[C@@]2(OC1)O[C@H]1C[C@H]3[C@@H]4CC[C@@H]5C[C@@H](O[C@@H]6O[C@H](CO)[C@H](O)[C@H](O)[C@H]6O)CC[C@]5(C)[C@H]4CC[C@]3(C)[C@H]1[C@@H]2C [Timosaponin A1] | -0.9 | –
CC(=O)c1c(O)c(C)c(O)c2c1OC1=CC(=O)C(C(C)=O)C(=O)C12C (stereo not shown) [Usnic acid] | -0.2 | –
O=C(O)C(=O)c1ccccc1 [Phenylglyoxylic acid] | -0.7 | –
COc1cccc(O)c1-c1cc(=O)c2c(O)c(OC)c(OC)c(OC)c2o1 [Skullcapflavone II] | 20.2 | –
O=C1CC[C@H](NC(=O)Cc2ccccc2)C(=O)N1 [Antineoplaston A10] | 2 | –
CCCCCC1CCCC(=O)O1 (stereo not shown) [δ-Decalactone] | -1.9 | –
COc1ccc(/C=C/C(=O)c2c(O)cc(O[C@@H]3O[C@H](CO[C@@H]4O[C@@H](C)[C@H](O)[C@@H](O)[C@H]4O)[C@@H](O)[C@H](O)[C@H]3O)cc2OC)cc1O [Hesperidin methylchalcone] | -0.1 | –
OC[C@@H](O)[C@H](O)[C@@H](O)CO [Xylitol] | 0.2 | –
CC1=CC(=O)C(C(C)C)CC1 (stereo not shown) [Piperitone] | -0.8 | –
CCCCCCCCCCCCCCCC(=O)OCC [Ethyl palmitate] | -0.2 | –
CCCCCC/C=C\CCCCCCCCCCCC(=O)O [Paullinic acid] | -0.2 | –
N#Cc1cn([C@@H]2O[C@H](CO)[C@@H](O)[C@H]2O)c2ncnc(N)c12 [Toyocamycin] | 30.4 | –
O=C(O)CCc1c[nH]c2ccccc12 [3-Indolepropionic acid] | -0.1 | –
CC[C@H](CC[C@@H](C)[C@H]1CC[C@H]2[C@@H]3CC=C4C[C@@H](O)CC[C@]4(C)[C@H]3CC[C@]12C)C(C)C [Beta-Sitosterol (purity>98%)] | – | 0
COC(=O)c1ccc(OC)cc1 [Methyl anisate] | 3.1 | –
COc1ccc2ccc(=O)oc2c1CC(=O)C(C)C [Isomerazin] | 1.4 | –
OC[C@H]1O[C@@H]2O[C@H]3[C@H](O)[C@@H](O)[C@@H](O[C@H]4[C@H](O)[C@@H](O)[C@@H](O[C@H]5[C@H](O)[C@@H](O)[C@@H](O[C@H]6[C@H](O)[C@@H](O)[C@@H](O[C@H]7[C@H](O)[C@@H](O)[C@@H](O[C@H]8[C@H](O)[C@@H](O)[C@@H](O[C@H]9[C@H](O)[C@@H](O)[C@@H](O[C@H]1[C@H](O)[C@H]2O)O[C@@H]9CO)O[C@@H]8CO)O[C@@H]7CO)O[C@@H]6CO)O[C@@H]5CO)O[C@@H]4CO)O[C@@H]3CO [γ-Cyclodextrin] | 0.8 | –

Quoted at random: two records from the list
SMILES | OC43 Inhibition rate [%] | OC43 Inhibition rate (OC43 Inhibition rate, 24 h) [%]
Nc1nc(N)c(O[C@@H]2O[C@H](CO)[C@@H](O)[C@H](O)[C@H]2O)c(=O)[nH]1 [Vicine] | -0.8 | –
CC1=CC(=O)C(C(C)C)CC1 (stereo not shown) [Piperitone] | -0.8 | –
